PubChem BioAssay AID720505, Drosophila RNAi Screening Center – 2013

Assay: 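Genes needed for store-operated calcium entry in fly cells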 (primary screen)
Cells: Drosophila S2R+ cells
Reagents: long dsRNA against Drosophila genes
Challenge: thapsigargin (2 µM) in calcium-free buffer to empty internal stores, then 2 mM calcium added back
Detection: 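Stores emptied by 2 µM thapsigargin without calcium, then 2 mM calcium re-added; fluo-4 fluorescence followed by FLIPR in 384-well plates, per-well averaged endpoint, raw; two screen passes, some wells retested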
Direction: calcium signal and retest calcium signal: higher = more calcium entry after store depletion
Hit rule: 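About 1500 genes called as lowering calcium entry, by varying amounts, judged against per-plate control wells with STIM1 as positive and Rho1 as negative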
Meaning of the calls: active = called as lowering calcium entry; inactive = not called
The screen tested about 20,000 reagents; this is an unselected part of those that have a named target and a result. Of all reagents, about 2,100 (10%) are marked active. 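Raw plate signals without normalisation; calls rest on control-based scores that were not deposited; replicate 2 separates called from uncalled poorly.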 A plus sign joins genes that one reagent is predicted to hit. Reagent sequences are not shown. Not given: the amount of reagent, the time to read-out.

| gene | DRSC id | calcium signal, replicate 1 | calcium signal, replicate 2 | retest calcium signal, replicate 1 | retest calcium signal, replicate 2 | call |
| --- | --- | --- | --- | --- | --- | --- |
| Wdfy2 (WD repeat and FYVE domain containing 2) | DRSC02822 | 71.6 | 109 | – | – | inactive |
| Gtpx | DRSC08221 | 99.2 | 133 | – | – | inactive |
| Gtpx | DRSC22117 | 87.1 | 125 | – | – | inactive |
| CG5853 | DRSC01103 | 180 | 115 | – | – | inactive |
| CG5853 | DRSC02906 | 69 | 104 | – | – | active |
| FucTA (alpha1,3-fucosyltransferase A) | DRSC10733 | 81.7 | 128 | – | – | inactive |
| CG8132 | DRSC16383 | 107 | 88.4 | – | – | inactive |
| Ntmt (N-terminal methyltransferase) | DRSC06624 | 108 | 219 | – | – | inactive |
| Apoltp (Apolipoprotein lipid transfer particle) | DRSC02508 | 92.9 | 142 | – | – | inactive |
| CG12481 | DRSC19461 | 114 | 107 | – | – | inactive |
| CG14974 | DRSC08433 | 101 | 80 | – | – | inactive |
| dmrt11E (doublesex-Mab related 11E) | DRSC19715 | 134 | 118 | 92.1 | 91.2 | inactive |
| CG14244 | DRSC14739 | 88.4 | 130 | – | – | inactive |
| CG1513 | DRSC05194 | 114 | 138 | – | – | inactive |
| CG1513 | DRSC06553 | 164 | 149 | – | – | inactive |
| CG1513 | DRSC06554 | 49.5 | 97.8 | – | – | active |
| CG11929 | DRSC00339 | 105 | 118 | – | – | inactive |
| CG1105 | DRSC12528 | 112 | 134 | – | – | inactive |
| cDIP (Common Dpr-interacting protein) | DRSC14267 | 184 | 239 | – | – | inactive |
| Usp20-33 (Ubiquitin specific protease 20/33) | DRSC07196 | 185 | 102 | – | – | inactive |
| roh (reduction of Rh1) | DRSC04003 | 67 | 51.6 | – | – | active |
| CG30151 | DRSC05888 | 44.9 | 121 | – | – | active |
| mRpL35 (mitochondrial ribosomal protein L35) | DRSC14586 | 173 | 171 | – | – | inactive |
| GABA-B-R3 (metabotropic GABA-B receptor subtype 3) | DRSC00561 | 137 | 151 | – | – | inactive |
| Pli (Pellino) | DRSC16792 | 211 | 242 | – | – | inactive |
| Kaz (Katazuke) | DRSC14637 | 145 | 80.1 | – | – | inactive |
| Jhbp16 (Juvenile hormone binding protein 16) | DRSC15039 | 183 | 214 | – | – | inactive |
| lncRNA:CR31386 (long non-coding RNA:CR31386) | DRSC22769 | 111 | 179 | – | – | inactive |
| lncRNA:CR31386 (long non-coding RNA:CR31386) | DRSC23186 | 156 | 160 | – | – | inactive |
| CG33557 | DRSC17854 | 96.6 | 83.6 | – | – | inactive |
| Sting | DRSC06615 | 105 | 238 | – | – | inactive |
| Cp19 (Chorion protein 19) | DRSC11121 | 128 | 93 | – | – | inactive |
| capt (capulet) | DRSC00676 | 219 | 144 | – | – | inactive |
| capt (capulet) | DRSC00806 | 229 | 134 | – | – | inactive |
| Or42b (Odorant receptor 42b) | DRSC04913 | 173 | 163 | – | – | inactive |
| CG14609 | DRSC12553 | 94.5 | 144 | – | – | inactive |
| CG43326 + CG43325 | DRSC04157 | 84.5 | 188 | – | – | inactive |
| RhoGAPp190 (Rho GTPase activating protein p190) | DRSC20097 | 87 | 75.9 | – | – | inactive |
| RhoGAPp190 (Rho GTPase activating protein p190) | DRSC20099 | 147 | 128 | – | – | inactive |
| CysRS-m (Cysteinyl-tRNA synthetase, mitochondrial) | DRSC07129 | 160 | 156 | – | – | inactive |
| Spase25 (Spase 25-subunit) | DRSC19776 | 141 | 81.6 | – | – | inactive |
| CG14137 | DRSC10142 | 125 | 104 | – | – | inactive |
| Damm (Death associated molecule related to Mch2 caspase) | DRSC07393 | 107 | 167 | – | – | inactive |
| CG13364 | DRSC17898 | 54.5 | 142 | – | – | active |
| CG13364 | DRSC21263 | 134 | 83.7 | – | – | inactive |
| jhamt (juvenile hormone acid methyltransferase) | DRSC01985 | 97 | 102 | – | – | inactive |
| SelG (Selenoprotein G) | DRSC19808 | 163 | 162 | – | – | inactive |
| Myc | DRSC18762 | 95.7 | 77.5 | – | – | inactive |
| Est-P (Esterase P) | DRSC11163 | 78 | 82.6 | – | – | active |
| Pex14 (Peroxin 14) | DRSC11754 | 105 | 131 | – | – | inactive |
| CG9897 + asRNA:CR42742 | DRSC04595 | 94.8 | 137 | – | – | inactive |
| Prosbeta6 (Proteasome beta6 subunit) | DRSC11256 | 47.2 | 58.7 | – | – | active |
| CG8252 | DRSC07126 | 173 | 149 | – | – | inactive |
| CG6813 | DRSC16122 | 172 | 97.8 | – | – | inactive |
| CG8414 | DRSC07168 | 127 | 109 | – | – | inactive |
| RhoGEF2 (Rho guanine nucleotide exchange factor 2) | DRSC07531 | 71.7 | 163 | – | – | active |
| lncRNA:CR42859 (long non-coding RNA:CR42859) | DRSC00103 | 76.4 | 67.6 | – | – | active |
| Arc2 (Activity-regulated cytoskeleton associated protein 2) | DRSC06436 | 64.8 | 134 | – | – | active |
| CG15706 | DRSC06577 | 176 | 106 | – | – | inactive |
| CG12075 | DRSC17801 | 192 | 163 | – | – | inactive |
| Rpn8 (Regulatory particle non-ATPase 8) | DRSC04624 | 92.6 | 135 | – | – | active |
| Phk-3 (Pherokine 3) | DRSC04547 | 66.8 | 132 | – | – | inactive |
| CG3732 | DRSC04410 | 157 | 125 | – | – | inactive |
| emb (embargoed) | DRSC03528 | 96.4 | 173 | – | – | inactive |
| Slob (Slowpoke binding protein) | DRSC02296 | 217 | 76.7 | – | – | inactive |
| Slob (Slowpoke binding protein) | DRSC03436 | 128 | 243 | – | – | inactive |
| dnt (doughnut on 2) | DRSC03522 | 103 | 128 | – | – | inactive |
| sphinx2 | DRSC22188 | 118 | 202 | – | – | inactive |
| cathD (cathepsin D) | DRSC07588 | 85.1 | 88.7 | – | – | inactive |
| CG18609 | DRSC06775 | 188 | 150 | – | – | inactive |
| Trm7-34 (tRNA methyltransferase 7-34) | DRSC16171 | 118 | 102 | – | – | inactive |
| san (separation anxiety) | DRSC07695 | 125 | 151 | – | – | inactive |
| chinmo (Chronologically inappropriate morphogenesis) | DRSC00292 | 167 | 263 | – | – | inactive |
| chinmo (Chronologically inappropriate morphogenesis) | DRSC00485 | 112 | 114 | – | – | inactive |
| chinmo (Chronologically inappropriate morphogenesis) | DRSC00509 | 147 | 128 | – | – | inactive |
| chinmo (Chronologically inappropriate morphogenesis) | DRSC22413 | 99.8 | 202 | – | – | inactive |
| Top3beta (Topoisomerase 3beta) | DRSC18724 | 170 | 115 | – | – | inactive |
| CG32706 + CG6999 | DRSC18412 | 86.5 | 108 | – | – | inactive |
| CG13423 | DRSC06386 | 123 | 117 | – | – | inactive |
| Daao2 (D-amino acid oxidase 2) | DRSC02135 | 91 | 147 | – | – | inactive |
| Vps11 (Vacuolar protein sorting 11) | DRSC11909 | – | – | – | – | active |
| Vps11 (Vacuolar protein sorting 11) | DRSC21579 | 213 | 104 | – | – | inactive |
| CG14346 | DRSC00376 | 162 | 167 | – | – | inactive |

Not a retest: 5 of the entries above.
| gene | DRSC id | calcium signal, replicate 1 | calcium signal, replicate 2 | retest calcium signal, replicate 1 | retest calcium signal, replicate 2 | call |
| --- | --- | --- | --- | --- | --- | --- |
| RhoGAPp190 (Rho GTPase activating protein p190) | DRSC20099 | 147 | 128 | – | – | inactive |
| CysRS-m (Cysteinyl-tRNA synthetase, mitochondrial) | DRSC07129 | 160 | 156 | – | – | inactive |
| Spase25 (Spase 25-subunit) | DRSC19776 | 141 | 81.6 | – | – | inactive |
| CG14137 | DRSC10142 | 125 | 104 | – | – | inactive |
| Damm (Death associated molecule related to Mch2 caspase) | DRSC07393 | 107 | 167 | – | – | inactive |
